# Screening data, single-dose tests

Measurements from “University of Dundee, Small-Polar-MMV Screening Library” (2021), ChEMBL document CHEMBL3988442.

A: 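Whole-parasite assay of Trypanosoma brucei over 72 hours; the read-out is not stated. Compounds at 30 µM. Direction is inferred from retests: higher values go with stronger inhibition. Values scatter widely below zero; nearly all retest evidence comes from the higher of the two concentrations used. Size under these conditions: about 64,000 compounds, about 940 of them at 50% or above in at least one test.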
B: 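Assay of Toxoplasma gondii numbers, read through their beta-galactosidase reporter with a colour substrate. Tested at 10 µM. The record gives no direction; the compounds picked for IC50 retests had high values, so higher reads as fewer parasites. Size under these conditions: about 67,000 compounds, about 260 of them at 50% or above in at least one test.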

Values are the deposited “Percent Effect”, in %. How 0% and 100% were set is not recorded. Most values in the screen are low, and negative values occur. The compounds are a random part of those screened. A dash means the value is not listed here; it may have been measured.

compound	A	B
O=C(NCC1(c2ccc(F)cc2)CC1)N1CCC2(CCOC2)C1 (centres unmarked)	-35.87	5.487
CN(CCCSc1ccccc1)C(=O)Cn1ncc(N(C)C)cc1=O	1.985	5.282
O=C(O)C(F)(F)F.[H][C@]12CCCN(Cc3ccc(C)s3)[C@@]1([H])CN(C(=O)c1ccco1)C2	4.675	7.551
CC(C)C1CN(C(=O)c2cc(F)cc3[nH]cnc23)CCS1 (centres unmarked)	-16.3	-
O=C1CC(N(C(=O)CCc2cc(F)ccc2F)C2CC2)C(=O)N1 (centres unmarked)	-28.55	-0.1666
O=C(NCc1cc[nH]n1)NC1CCCN(c2ncccn2)C1 (centres unmarked)	-15.93	-2.363
CCOCc1nc2c(c(N3CC=CC3)n1)CCN(C1CCOCC1)CC2	7.403	2.868
O=C(O)C(F)(F)F.O=C1COC2(CCN(C(=O)c3ccco3)CC2)CN1Cc1cccnc1	-6.751	3.062
Cc1nn(C)c(C)c1CC(=O)NCc1cccnc1OC1CCCC1	-23.08	-6.921
CN(C)C(=O)N1CCN(Cc2noc(Cc3ccccc3)n2)CC1	-37.2	-
CCS(=O)(=O)CC(=O)NCC1(c2c(F)cccc2F)CCCC1	-69.67	8.471
Cc1ccc2c(c1)C(NCc1ccccn1)CC2 (centres unmarked)	31.05	3.376
CCOCCC(=O)Nc1cc(C)cnc1OC	2.056	1.239
CC(=O)N(Cc1ncc(C(C)C)o1)C1CCN(Cc2nccn2C)C1 (centres unmarked)	-13.83	1.508
Cn1nc2c(cc1=O)CN(CC(=O)NC1CCCCNC1=O)CC2 (centres unmarked)	-43.55	6.885
Cc1nn2cccnc2c1C(=O)N1CCCC(n2cccn2)C1 (centres unmarked)	-3.624	-46.43
NC(=O)Cn1ccnc1C1CCCN(Cc2cccc(Cl)c2F)C1 (centres unmarked)	-44.66	15.1
CNc1nc(CNC(=O)Nc2ccc(OC(C)C)cc2F)cs1	2.299	7.398
Cc1ccccc1CCC1CCCN(Cc2nnc(-c3ccco3)o2)C1 (centres unmarked)	-33.33	13.64
COC(=O)c1ccccc1NS(=O)(=O)c1c(C)nn(C)c1C	-30.5	-28.15
CCNC(=O)[C@@H]1C[C@@H](N)CN1C(=O)Cc1cc(C)ccc1C	-11.75	7.115
CC(C)(O)CN1CCN(C(=O)c2ccc(Cl)c3cccnc23)CC1	-1.2	-13.22
OC1(c2cn(C3CCN(C4CCSC4)CC3)nn2)CCCC1 (centres unmarked)	-7.658	7.668
O=C(NCc1ccnc(OCC(F)(F)F)c1)NCC1COCCO1 (centres unmarked)	-	-11.21
CCn1ncc(C(=O)NCCc2nc(-c3ccc(C)cc3)n[nH]2)c1C	0.8113	-8.169
Nc1nc2c(c(NCc3cnc4c(c3)CCC4)n1)CCNC2	-14.26	12.79
O[C@@H]1Cc2ccccc2[C@@H]1Nc1ncccc1F	-14.94	-8.344
CS(=O)(=O)N1CC2(CCN(C(=O)c3ccncc3)CC2)c2ccccc21.O=C(O)C(F)(F)F	-14.55	-7.803
Cc1nc(C)c(C(=O)NCCNC(=O)Cc2ccccc2)s1	11.62	5.708
Cc1csc2ncc(-c3ccnc(N4CCC[C@H](C(N)=O)C4)n3)c(=O)n12	-8.345	-0.3024
Cc1noc(C)c1C(C)C(=O)N1CCCN(C)c2ccc(Cl)cc21 (centres unmarked)	-23.3	-10.12
Cc1ccc(OC2(C(=O)NC(C)c3csc(C)n3)CCNCC2)cc1 (centres unmarked)	-6.28	10.36
c1cncc(O[C@H]2COCCN(CC3CC3)C2)c1	-11.06	2.76
COc1cc(C#N)ccc1OCCN1CCC(n2ccnc2)CC1	-54.7	4.23
CSCc1noc(Cn2ccc3ccccc3c2=O)n1	-3.022	12.09
O=C(O)C(F)(F)F.O=C(O)C(F)(F)F.[H][C@@]12COC[C@@H](CC(=O)NCc3cccnc3)[C@]1([H])CN(CC1CC1)C2	12.6	-14.58
CNC(=O)c1cc2c(nc1NCC(C)C)CCN(CCOC)CC2.O=C(O)C(F)(F)F.O=C(O)C(F)(F)F	-66.86	-3.374
O=C(Cc1ccc(Br)cc1)N1CC(S(=O)(=O)C2CCCCC2)C1	11.29	-2.188
[H][C@@]12CCCN1CCCN(Cc1cnc(NCc3ccccc3)nc1)C2	15.44	-3.111
O=C(O)C(F)(F)F.[H][C@@]12COC[C@]1(C(=O)NCC1CC1)CN(Cc1scnc1C)C2	-10.84	1.165
[H][C@@]12CS(=O)(=O)C[C@]1([H])N(Cc1ccc(Cl)cc1)CCN2CCOC	-37.64	-2.324
NCc1cnn(-c2ccccc2C(=O)NCCc2ccccn2)c1	16.7	-1.321
C[C@@H]1CN(C(=O)Cc2ccsc2)C[C@]12CCN(CCN(C)C)C2=O	-62.24	-43.83
N#Cc1ccc(OCCn2cccn2)cc1	-43.56	-10.16
CCc1ccc(O)c(C(=O)NC2CCN(C(=O)OC)CC2)c1	-23.91	3.083
Cc1noc(CNc2cc3c(cc2Cl)NC(=O)CO3)n1	-40.65	32.05
CCN(CC)CCNC(=O)c1ccn(COc2cc(C)cc(C)c2)n1	30.44	-0.4782
O=C(CCN1CCCCC1c1cc2ccccc2[nH]1)N1CCOCC1 (centres unmarked)	-46.38	14.36
O=C(O)C(F)(F)F.[H][C@]12CCC[C@@]1(COCc1csc(C)n1)CN(Cc1cc(C)on1)C2	-4.029	1.484
CCNC(=O)[C@@H]1C[C@@H](NC(=O)c2ccc(C)s2)CN1Cc1ccccn1	-46.02	19.24

Some entries from above, unchanged:

* c1cncc(O[C@H]2COCCN(CC3CC3)C2)c1 : A: -11.06%; B: 2.76%
* Cc1ccc2c(c1)C(NCc1ccccn1)CC2 (centres unmarked) : A: 31.05%; B: 3.376%
* CCn1ncc(C(=O)NCCc2nc(-c3ccc(C)cc3)n[nH]2)c1C : A: 0.8113%; B: -8.169%
* Cc1csc2ncc(-c3ccnc(N4CCC[C@H](C(N)=O)C4)n3)c(=O)n12 : A: -8.345%; B: -0.3024%